The results in this text go back to article PMC7260363.

The chains behind the UniProt entries cited, without tags or fusion partners. Where a name states a change or a piece, a line headed by the entry shows the natural chain unless it says otherwise.
UniProt P62873: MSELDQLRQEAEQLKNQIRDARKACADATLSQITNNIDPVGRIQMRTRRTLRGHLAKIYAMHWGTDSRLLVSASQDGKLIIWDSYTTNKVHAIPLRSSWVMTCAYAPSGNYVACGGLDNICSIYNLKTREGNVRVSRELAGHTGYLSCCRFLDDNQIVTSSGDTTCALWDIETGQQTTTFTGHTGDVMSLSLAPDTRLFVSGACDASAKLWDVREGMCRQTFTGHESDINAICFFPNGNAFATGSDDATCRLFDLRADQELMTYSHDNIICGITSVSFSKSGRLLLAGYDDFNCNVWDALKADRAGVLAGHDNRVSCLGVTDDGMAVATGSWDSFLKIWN
UniProt P08588: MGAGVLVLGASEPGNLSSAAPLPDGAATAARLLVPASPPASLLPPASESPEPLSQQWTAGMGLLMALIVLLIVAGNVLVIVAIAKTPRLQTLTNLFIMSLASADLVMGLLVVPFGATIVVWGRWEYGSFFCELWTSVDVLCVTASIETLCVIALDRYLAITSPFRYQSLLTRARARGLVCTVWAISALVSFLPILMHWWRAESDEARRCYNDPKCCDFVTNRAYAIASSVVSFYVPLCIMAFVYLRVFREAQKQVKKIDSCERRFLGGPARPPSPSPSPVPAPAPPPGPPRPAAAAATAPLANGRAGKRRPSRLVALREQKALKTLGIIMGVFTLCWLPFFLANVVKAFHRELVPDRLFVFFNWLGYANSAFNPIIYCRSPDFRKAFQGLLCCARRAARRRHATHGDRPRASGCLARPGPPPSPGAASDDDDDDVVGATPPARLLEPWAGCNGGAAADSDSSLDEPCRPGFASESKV
UniProt Q03113: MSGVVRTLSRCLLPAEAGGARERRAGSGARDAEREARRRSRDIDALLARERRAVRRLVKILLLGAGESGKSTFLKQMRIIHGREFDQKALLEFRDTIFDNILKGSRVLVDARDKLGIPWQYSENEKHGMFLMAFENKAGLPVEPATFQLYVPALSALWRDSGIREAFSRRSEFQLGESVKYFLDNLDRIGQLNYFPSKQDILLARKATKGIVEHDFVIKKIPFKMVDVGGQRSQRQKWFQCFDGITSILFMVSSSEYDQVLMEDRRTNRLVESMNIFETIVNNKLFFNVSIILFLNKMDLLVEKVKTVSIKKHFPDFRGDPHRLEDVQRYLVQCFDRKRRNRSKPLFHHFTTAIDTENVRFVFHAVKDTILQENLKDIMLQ
UniProt P32121: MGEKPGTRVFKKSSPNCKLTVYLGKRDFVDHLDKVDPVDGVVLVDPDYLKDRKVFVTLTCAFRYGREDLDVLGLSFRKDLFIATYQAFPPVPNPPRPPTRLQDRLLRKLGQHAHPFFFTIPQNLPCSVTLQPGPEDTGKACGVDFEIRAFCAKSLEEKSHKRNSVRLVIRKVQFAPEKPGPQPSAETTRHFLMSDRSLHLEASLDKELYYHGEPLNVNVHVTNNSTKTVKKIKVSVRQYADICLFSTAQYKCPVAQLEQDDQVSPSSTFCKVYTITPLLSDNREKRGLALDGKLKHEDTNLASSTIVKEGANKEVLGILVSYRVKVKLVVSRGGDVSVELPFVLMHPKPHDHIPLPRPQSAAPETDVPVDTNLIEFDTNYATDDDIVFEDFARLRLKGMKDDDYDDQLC

The target of assay [1] is Gβ1 (untagged) with GFP10-Gγ1 (UniProt P62873). Put plainly: FRET or BRET; living HEK 293 cells (HA-β1AR stable line or transfected receptor: β1AR, β2AR, D2R, D4R or TPαR); Gα-Rluc donor, GFP10-Gγ1 acceptor, untagged Gβ1; titration, kinetic and concentration-response curves with or without agonist (1 μM isoproterenol); a decrease in BRET is read as separation of Gα from Gβγ; 37 °C, Tyrode's-HEPES or Kreb's/HEPES buffer pH 7.4.

Assay [2] deals with β1-adrenergic receptor fused to GFP10 (β1AR-GFP10) (UniProt P08588). As to the kind of experiment: condition: only with isoetharine, xamoterol or salmeterol as the ligand; FRET or BRET; as a3, but with isoetharine, xamoterol or salmeterol as the ligand.
Assay [3] shares this target. As to the kind of experiment: FRET or BRET; living HEK 293 cells; hβarrestin2-RlucII donor, β1AR-GFP10 acceptor; isoproterenol, epinephrine, norepinephrine or indacaterol; BRET read 10 min after agonist.

Results are given in words; binding and its absence hold for the method and conditions named. In cells and extracts the contact can be indirect. Some binding calls cover weakened binding; strength is not graded here.

For the substance “Gα12-84RlucII (from UniProt Q03113 1-381)”, the binding result in assay [1] is reported as “binds”.
“hβarrestin2-RlucII (from UniProt P32121 1-409)”: the binding result is “no binding” in assay [2] and “binds” in assay [3].
